In PubChem BioAssay AID1347076 (National Center for Advancing Translational Sciences (NCATS), 2019):
In all, about 400,000 compounds went through this assay and about 13,000 (3.2%) were called active. This list was built around the results that the source calls inconclusive (neither active nor inactive); the mix of calls is not that of the screen. Calls come from the whole dose curve; as a rule, active = well fitted cell-killing curve with a large enough effect; inconclusive = small, poorly fitted or top-dose-only effect, or effect the other way; inactive = flat fitted curve, though single readings scatter. Potencies beside an inconclusive call are fits to weak or partial responses and may not hold up.

Experiment: qHTS assay for MDR1-selective chemotherapeutics: Primary screen using the drug-selected MDR subline cells KB-V1; note: nearly all actives have a fitted effect of over 60% in size
Conditions: KB-V1 MDR cells viability, CellTiter-Glo, 72 h; activity change, negative = cytotoxicity: at 46.1 µM (top of the series)
In short: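 KB-V1, DMEM (no phenol red) + 10% FBS; cpd pin-transferred, titration series; 72 h, 37 degrees C; CellTiter-Glo, luminescence. Data normalized, curve-fit.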
% is set by controls: 0 for no effect and ±100 for the full control effect; potency is the fitted concentration of half-maximal effect.

Q: Which Potency does the source give for `C=CCN1C=CC(=O)[C@@H](O)[C@H]1c1ccccc1Br` here?
A: inconclusive: 0.517 µM [rising, full curve, poor fit]

Q: With `C/C(=N\NC(=O)c1nc2ccccn2c1C)c1cc2ccccc2o1` as the compound, how does the Potency read?
A: inconclusive: 23.1 µM [cytotoxic, partial curve]

Q: For `O=C(NCCCNc1ccc(C(F)(F)F)cc1[N+](=O)[O-])c1cc(F)c(F)cc1Cl`, which Potency is on record?
A: inconclusive: 23.1 µM [cytotoxic, single point]

Q: Which Potency does the source give for `Cc1ccc(C2=NOC(C)(c3nnc(-c4ccncc4)o3)C2)cc1` (stereo not drawn) here?
A: inconclusive: 16.4 µM [cytotoxic, single point]

Q: For `C/C(=N\NC(=O)Nc1ccccc1)c1ccc2ccccc2c1`, which Potency is on record?
A: inconclusive: 29.1 µM [cytotoxic, single point]

Q: With `Cc1ccc(C)c(N2C(=O)CC(Cc3ccc(Cl)cc3)C2=O)c1` (stereo not drawn) as the compound, how does the Potency read?
A: inconclusive: 18.4 µM [cytotoxic, single point]

Q: Which Potency does the source give for `O=C1N/C(=C\c2ccc(O)cc2)C(O)=C1C=NCc1ccccc1` here?
A: inconclusive: 8.2 µM [cytotoxic, partial curve]

Q: For `O=C(O)Cc1nc2nc3c(c(=O)n2[nH]1)CCCC3`, which Potency is on record?
A: inconclusive: 20.6 µM [cytotoxic, partial curve, poor fit]

Q: Which Potency does the source give for `CSCCC1NC(=O)N(CC(=O)Nc2cc(C)on2)C1=O` (stereo not drawn) here?
A: inconclusive: 20.6 µM [rising, single point]

Q: With `CC1CC1C(=O)OCC(=O)NCc1ccccc1` (stereo not drawn) as the compound, how does the Potency read?
A: inactive

Q: For `CCN(CCCNC(=O)CC(C(=O)N1CCc2ccccc21)n1ccnc1)c1cccc(C)c1` (stereo not drawn), which Potency is on record?
A: active: 11.6 µM

Q: Which Potency does the source give for `CC(=NNC(=S)SCc1ccccc1)c1ccccn1` here?
A: inconclusive: 0.517 µM [cytotoxic, full curve, poor fit]

Q: For `Cc1ccc2oc(C(=O)N(Cc3ccc(N(C)C)cc3)CC3CCCO3)c(C)c2c1` (stereo not drawn), which Potency is on record?
A: inconclusive: 16.4 µM [cytotoxic, single point]

Q: With `COC(=O)C1=C(C)N(Cc2ccccc2)C(=NCCc2c[nH]c3ccccc23)N[C@H]1c1cccc(F)c1` as the compound, how does the Potency read?
A: inconclusive: 29.1 µM [cytotoxic, single point]

Q: For `Cc1[nH]n(-c2ccccc2)c(=O)c1C(c1ccccc1[N+](=O)[O-])C(C#N)C#N` (stereo not drawn), which Potency is on record?
A: inactive

Q: For `COc1ccc(C(=O)Nc2cc(S(=O)(=O)N3CCCCC3)ccc2C)cc1`, which Potency is on record?
A: inconclusive: 20.6 µM [cytotoxic, partial curve]

Q: Which Potency does the source give for `O=S(=O)(/N=C(/Nc1ccccn1)c1ccccc1)c1ccc(Cl)cc1` here?
A: active: 14.6 µM

Q: For `O=[N+]([O-])c1nn(-c2ccc3c(c2)OCCO3)n(O)c1=NCCC1=CCCCC1`, which Potency is on record?
A: inconclusive: 14.6 µM [cytotoxic, partial curve, poor fit]

Q: Which Potency does the source give for `COc1ccc(/C=C/c2ccc3c(Br)ccc(O)c3n2)cc1` here?
A: inconclusive: 18.4 µM [cytotoxic, single point]

Q: For `CCc1[nH]nc2c1C(c1ccc(Br)s1)C(C#N)=C(N)O2` (stereo not drawn), which Potency is on record?
A: inactive

Q: For `Cc1ccc(S(=O)(=O)N(C)C[C@H]2Oc3c(NC(=O)Nc4cccc5ccccc45)cccc3C(=O)N([C@@H](C)CO)C[C@@H]2C)cc1`, which Potency is on record?
A: inactive

Q: With `COc1ccc(N(CC(O)Cn2c(C)nc3ccccc32)S(=O)(=O)c2ccccc2)cc1` (stereo not drawn) as the compound, how does the Potency read?
A: inconclusive: 10.3 µM [rising, partial curve, poor fit]

Q: With `Cc1oc(-c2ccc3c(c2)OCCO3)cc1C(=O)O` as the compound, how does the Potency read?
A: active: 14.6 µM

Q: Which Potency does the source give for `Cc1c(NC(=O)CCc2ccccc2)cccc1[N+](=O)[O-]` here?
A: inconclusive: 29.1 µM [cytotoxic, single point]

Q: With `CCC(=O)Nc1ccc(-c2nnc(SCc3ccccc3)n2C)cc1` as the compound, how does the Potency read?
A: inactive

Q: For `CCc1nnc2c(N3CCN(c4cccc(C(F)(F)F)c4)CC3)nc3ccccc3n12`, which Potency is on record?
A: inconclusive: 29.1 µM [cytotoxic, single point]

Q: For `c1ccc(OCCN2CCNCC2)cc1`, which Potency is on record?
A: inactive

Q: For `C[C@@H]1CC=C[C@H]2[C@H]1C(=O)N(Cc1ccccc1)[C@H]2c1ccc(C(F)(F)F)cc1`, which Potency is on record?
A: inconclusive: 18.4 µM [cytotoxic, partial curve, poor fit]

Q: For `NC(=O)CSc1oc(-c2ccco2)nc1S(=O)(=O)c1ccccc1`, which Potency is on record?
A: inconclusive: 1.46 µM [rising, full curve]

Q: With `CN1CCc2c(OCC(=O)N3CCCc4ccccc43)cccc2C1=O` as the compound, how does the Potency read?
A: inconclusive: 4.11 µM [cytotoxic, partial curve]

Q: With `CCOC(=O)c1c(NC(=O)CNC2CCCc3ccccc32)sc(C(N)=O)c1C` (stereo not drawn) as the compound, how does the Potency read?
A: inconclusive: 6.51 µM [cytotoxic, partial curve]

Q: For `O=C(CN1C(=O)c2ccccc2S1(=O)=O)c1ccc(Cl)cc1Cl`, which Potency is on record?
A: inactive

Q: With `COc1ccc2[nH]c(=O)c(C(c3nnnn3C3CCCC3)N(C)C3CCCCC3)cc2c1` (stereo not drawn) as the compound, how does the Potency read?
A: active: 5.17 µM

Q: With `O=C(NC(=S)NCCc1ccccc1)c1ccco1` as the compound, how does the Potency read?
A: inconclusive: 6.51 µM [rising, partial curve]

Q: For `Cc1ccc(NS(=O)(=O)c2cccc(C(=O)N/N=C/c3c(C)nn(-c4ccccc4)c3N3CCCC3)c2)c(C)c1`, which Potency is on record?
A: inconclusive: 20.6 µM [cytotoxic, single point]

Q: For `O=C(NC1CCCCC1)C(c1ccco1)N(Cc1cccs1)C(=O)Cn1nnc2ccccc21` (stereo not drawn), which Potency is on record?
A: active: 5.17 µM

Q: Which Potency does the source give for `CC(C)Cn1c(=O)c2c(nc3n2CCCN3CCc2ccccc2)n(C)c1=O` here?
A: active: 10.3 µM

Q: With `O=C1N(Cc2cccc(Cl)c2)C[C@@H]2C[C@@H](c3ccsc3)N3CCC[C@@]123` as the compound, how does the Potency read?
A: inconclusive: 18.4 µM [cytotoxic, single point]

Q: With `O=C(Cn1c(=O)n(Cc2ccco2)c(=O)c2oc3ccccc3c21)Nc1ccc(F)c(Cl)c1` as the compound, how does the Potency read?
A: inconclusive: 25.9 µM [cytotoxic, single point]

Q: For `Cc1cc(C)nc(NS(=O)(=O)c2ccc(NC(=O)C(C)Oc3ccccc3F)cc2)n1` (stereo not drawn), which Potency is on record?
A: inactive

Q: For `O=C1CC(c2ccccc2)Cc2nc(NCc3ccco3)ncc21` (stereo not drawn), which Potency is on record?
A: active: 16.4 µM

Q: For `COc1cc2c3c(c1OC)-c1cc4c(cc1CC3(C#N)N(C(=O)c1ccccc1)CC2)OCO4` (stereo not drawn), which Potency is on record?
A: active: 3.26 µM

Q: With `NC(=O)CSc1nnc(-c2cccs2)n1Cc1ccco1` as the compound, how does the Potency read?
A: inconclusive: 16.4 µM [rising, partial curve, poor fit]

Q: For `CCOC(=O)[C@]12CCC=C1N(CCC1=CCCCC1)C(=O)[C@H](CC(=O)N1CCCC1)C2`, which Potency is on record?
A: inconclusive: 18.4 µM [cytotoxic, partial curve]

Q: Which Potency does the source give for `Cc1cc(NC(=O)c2sccc2C)n(-c2cccc(Cl)c2)n1` here?
A: inconclusive: 16.4 µM [cytotoxic, single point]

Q: With `COC(=O)CCCCCC(CCC(=O)OC)NC(C)=O` (stereo not drawn) as the compound, how does the activity change, negative = cytotoxicity read?
A: inconclusive: -29.4%

Q: Which Potency does the source give for `c1ccc(-n2ncc3c(NCc4cccs4)ncnc32)cc1` here?
A: inconclusive: 20.6 µM [cytotoxic, single point]

Q: With `O=C(N/N=C/c1ccccc1OCC(=O)N1CCCC1)C(=O)Nc1ccccc1F` as the compound, how does the Potency read?
A: inactive

Q: For `O=C(Nc1c(C(=O)N2CCN(c3ccccc3F)CC2)oc2ccccc12)c1ccco1`, which Potency is on record?
A: inconclusive: 3.26 µM [cytotoxic, partial curve, poor fit]

Q: Which Potency does the source give for `COc1cc(NC(=O)c2cccs2)ccc1NC(=O)c1ccccc1Cl` here?
A: inconclusive: 2.31 µM [cytotoxic, partial curve, poor fit]

Q: With `CN1CCN(CCCNC(=O)c2cnn(-c3ccc(F)cc3)c2-n2cccc2)CC1` as the compound, how does the Potency read?
A: inactive

Q: Which Potency does the source give for `CCc1cccc(C)c1NC(=O)CO/N=C(\C)c1cc2ccccc2o1` here?
A: inconclusive: 13 µM [cytotoxic, partial curve]

Q: With `COc1ccc(S(=O)(=O)N2CCCC2CNC(=O)C(=O)NCCc2ccccc2)cc1` (stereo not drawn) as the compound, how does the Potency read?
A: active: 4.61 µM

Q: Which Potency does the source give for `Cc1ccc(S(=O)(=O)N2CCN(C(=O)c3nn(C(C)C)c(=O)c4ccccc34)CC2)cc1C` here?
A: inconclusive: 18.4 µM [cytotoxic, single point]

Q: With `CCOCCCNC(=O)C1CCN(S(=O)(=O)c2c(C)noc2/C=C\c2ccc(OC)cc2)CC1` as the compound, how does the Potency read?
A: active: 18.4 µM

Q: With `CCCCC(=O)N1CCN(c2nc3ccc(F)cc3s2)CC1` as the compound, how does the Potency read?
A: inactive

Q: Which Potency does the source give for `Brc1ccccc1-n1nnc(-c2cnc3ccccc3c2)n1` here?
A: inactive

Q: For `COc1cc(OC)c2cc(C(=O)N/N=C/c3ccccc3O)[nH]c2c1`, which Potency is on record?
A: inactive

Q: Which Potency does the source give for `CCOc1cc(C#N)c(NC(=O)c2ccc(OC)c(S(=O)(=O)N3CCN(c4ccccc4)CC3)c2)cc1OCC` here?
A: inactive

Q: With `CCCCC1=CC2=CC(=O)C(C)(OC(=O)CC)C(=O)C2=CN1Cc1ccc(OC)cc1` (stereo not drawn) as the compound, how does the Potency read?
A: inactive

Q: For `CCOC(=O)C1CCN(CC(=O)N2C(C)CCCC2C)CC1` (stereo not drawn), which Potency is on record?
A: inconclusive: 14.6 µM [cytotoxic, partial curve, poor fit]

Q: For `CC[C@]12c3[nH]c4cc(CCC(=O)N(C)C)ccc4c3CCN1C(=O)[C@@H](CC(=O)NCC13CC4CC(CC(C4)C1)C3)C[C@@H]2C(=O)N1CCN(C(=O)C2CC2)CC1`, which Potency is on record?
A: inconclusive: 2.06 µM [rising, partial curve, poor fit]

Q: With `CCOC(=O)/C=C/[C@H]1Cc2ccccc2CO1` as the compound, how does the Potency read?
A: inconclusive: 0.517 µM [rising, full curve, poor fit]

Q: With `CC(C)Oc1ccc(C(CC(=O)O)Cc2ccccc2)cc1` (stereo not drawn) as the compound, how does the Potency read?
A: inconclusive: 4.11 µM [rising, full curve]

Q: For `CC(C)(C)CC(=O)NC(=S)NCc1ccccc1`, which Potency is on record?
A: inactive

Q: For `COc1ccc(CCNC(=O)C2CCCN(S(C)(=O)=O)C2)cc1` (stereo not drawn), which Potency is on record?
A: inactive

Q: Which Potency does the source give for `C=CCn1c(=S)[nH]c2sc3c(c2c1=O)CCCC3` here?
A: inconclusive: 2.91 µM [cytotoxic, partial curve, poor fit]

Q: Which Potency does the source give for `CCc1cc2c3c(c1)C(C)CC(C)(C)N3C(=O)C2=O` (stereo not drawn) here?
A: inconclusive: 29.1 µM [cytotoxic, single point]
